Counter-ions that a name gives are not always drawn. Some results were stated once for a whole list of compounds, not compound by compound. At least one structure is not confirmed: it was looked up by name or label, or the drawing left a doubt.
Biological target: T1, human Cav2.2 α (α1B) subunit, along with the human β3 and α2δ1 auxiliary subunits (Homo sapiens, UniProt Q00975)
T1 construct: expressed in transfected cells
Experiment: hCav2.2 assay, IonWorks planar array electrophysiology in stable HEK293 cell line
Type: cell-based
Details: for use-dependent pUD30: concentration producing 30% use-dependent inhibition, 10th versus 1st depolarising pulse, 10 Hz, -90 mV to +10 mV, HEK293 cells

By UniProt entry, the sequences of proteins in these tests, tags left out. Where a name states a change or a piece, a line headed by the entry shows the natural chain unless it says otherwise.
UniProt Q00975, whole entry: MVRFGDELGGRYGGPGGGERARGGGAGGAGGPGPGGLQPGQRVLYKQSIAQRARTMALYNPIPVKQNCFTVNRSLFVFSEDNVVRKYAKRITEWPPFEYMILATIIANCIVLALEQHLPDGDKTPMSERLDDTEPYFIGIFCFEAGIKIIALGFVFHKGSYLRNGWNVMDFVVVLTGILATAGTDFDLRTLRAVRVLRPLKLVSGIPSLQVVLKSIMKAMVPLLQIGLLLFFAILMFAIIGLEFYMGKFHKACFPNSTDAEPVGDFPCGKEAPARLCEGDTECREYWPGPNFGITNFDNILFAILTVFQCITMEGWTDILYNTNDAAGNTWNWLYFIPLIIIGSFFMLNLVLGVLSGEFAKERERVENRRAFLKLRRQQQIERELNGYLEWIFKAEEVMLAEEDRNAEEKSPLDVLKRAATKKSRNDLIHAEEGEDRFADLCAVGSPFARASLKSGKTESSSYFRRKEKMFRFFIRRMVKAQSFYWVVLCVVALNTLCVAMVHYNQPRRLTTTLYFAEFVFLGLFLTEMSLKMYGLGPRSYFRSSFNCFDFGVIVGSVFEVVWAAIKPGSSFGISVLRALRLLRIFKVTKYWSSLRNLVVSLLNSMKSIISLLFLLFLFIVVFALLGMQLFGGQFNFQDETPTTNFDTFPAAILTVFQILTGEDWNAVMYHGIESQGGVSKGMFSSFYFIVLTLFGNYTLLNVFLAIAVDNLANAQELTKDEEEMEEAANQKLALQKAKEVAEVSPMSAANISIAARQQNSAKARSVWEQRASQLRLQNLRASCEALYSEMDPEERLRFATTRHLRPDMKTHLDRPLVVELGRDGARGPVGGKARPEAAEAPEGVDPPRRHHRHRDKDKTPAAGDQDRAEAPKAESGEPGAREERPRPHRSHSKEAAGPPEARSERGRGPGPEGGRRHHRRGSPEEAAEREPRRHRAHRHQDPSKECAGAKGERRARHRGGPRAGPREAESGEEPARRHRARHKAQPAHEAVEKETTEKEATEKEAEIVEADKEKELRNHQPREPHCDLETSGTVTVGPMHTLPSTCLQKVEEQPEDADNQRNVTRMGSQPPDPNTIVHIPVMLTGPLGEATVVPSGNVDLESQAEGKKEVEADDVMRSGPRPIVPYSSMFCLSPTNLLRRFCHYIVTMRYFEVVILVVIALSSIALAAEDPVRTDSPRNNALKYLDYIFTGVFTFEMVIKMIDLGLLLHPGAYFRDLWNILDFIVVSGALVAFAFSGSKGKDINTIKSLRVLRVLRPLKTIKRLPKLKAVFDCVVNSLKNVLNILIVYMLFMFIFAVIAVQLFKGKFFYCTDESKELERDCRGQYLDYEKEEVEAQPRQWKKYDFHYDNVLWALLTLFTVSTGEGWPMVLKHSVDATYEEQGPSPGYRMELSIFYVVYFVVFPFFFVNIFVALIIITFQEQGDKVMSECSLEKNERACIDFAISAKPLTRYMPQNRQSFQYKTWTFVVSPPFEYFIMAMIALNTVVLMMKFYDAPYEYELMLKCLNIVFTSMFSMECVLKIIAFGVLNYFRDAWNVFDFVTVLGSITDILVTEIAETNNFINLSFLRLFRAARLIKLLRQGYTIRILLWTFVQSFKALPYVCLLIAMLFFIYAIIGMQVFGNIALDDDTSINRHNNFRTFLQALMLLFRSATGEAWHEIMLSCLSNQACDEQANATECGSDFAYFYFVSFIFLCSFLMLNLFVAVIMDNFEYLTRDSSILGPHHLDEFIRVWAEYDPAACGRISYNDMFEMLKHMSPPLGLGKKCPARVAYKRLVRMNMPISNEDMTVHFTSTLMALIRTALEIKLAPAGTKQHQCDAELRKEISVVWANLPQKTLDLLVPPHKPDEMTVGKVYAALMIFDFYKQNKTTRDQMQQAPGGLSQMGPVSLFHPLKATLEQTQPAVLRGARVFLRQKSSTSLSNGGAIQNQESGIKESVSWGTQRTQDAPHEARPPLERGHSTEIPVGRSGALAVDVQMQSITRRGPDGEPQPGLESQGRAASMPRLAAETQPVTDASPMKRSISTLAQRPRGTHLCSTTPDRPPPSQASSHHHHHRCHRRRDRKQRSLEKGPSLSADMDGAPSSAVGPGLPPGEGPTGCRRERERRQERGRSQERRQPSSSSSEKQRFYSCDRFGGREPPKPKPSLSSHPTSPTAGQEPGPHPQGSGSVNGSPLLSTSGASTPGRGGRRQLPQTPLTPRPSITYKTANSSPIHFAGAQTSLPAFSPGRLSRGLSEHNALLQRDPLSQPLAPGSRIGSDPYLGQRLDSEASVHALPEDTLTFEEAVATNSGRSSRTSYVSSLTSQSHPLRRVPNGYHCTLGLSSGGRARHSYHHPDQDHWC

Compound	activity in the hCav2.2 assay	also measured
FS(F)(F)(F)(F)c1ccc(-n2nnnc2CN2C[C@@H]3C[C@H]2CO3)cc1 [Compound 127, (1S,4S)-5-({1-[4-(pentafluoro-λ^6-sulfanyl)phenyl]-1H-tetrazol-5-yl}methyl)-2-oxa-5-azabicyclo[2.2.1]heptane]	showed activity	use-dependent pUD30: ≥ 5.5
CCS(=O)(=O)N1CCN(Cc2nnnn2-c2ccc(C(F)(F)F)cc2)CC1 [Compound 47, 1-(Ethylsulfonyl)-4-({1-[4-(trifluoromethyl)phenyl]-1H-tetrazol-5-yl}methyl)piperazine]	showed activity	
CC(C)N1CCN(Cc2nnnn2-c2ccc(C(F)(F)F)cc2)[C@@H](C)C1=O [Compound 88, (3S)-3-Methyl-1-(1-methylethyl)-4-({1-[4-(trifluoromethyl)phenyl]-1H-tetrazol-5-yl}methyl)-2-piperazinone[]]	showed activity	
CC1(C)CN(Cc2nnnn2-c2ccc(C(F)(F)F)cc2)CCN1 [Compound 99, 3,3-Dimethyl-1-({1-[4-(trifluoromethyl)phenyl]-1H-tetrazol-5-yl}methyl)piperazine dihydrochloride]	showed activity	
FC(F)(F)c1ccc(-n2nnnc2CN2CCN3CCC[C@@H]3C2)cc1 [Compound 76, (8aR)-2-({1-[4-(Trifluoromethyl)phenyl]-1H-tetrazol-5-yl}methyl)octahydropyrrolo[1,2-a]pyrazine]	showed activity	
CS(=O)(=O)c1ccc(-n2nnnc2CN2CCC[C@H]2C(F)(F)F)cc1 [Compound 120, 1-[4-(methylsulfonyl)phenyl]-5-{[(2S)-2-(trifluoromethyl)-1-pyrrolidinyl]methyl}-1H-tetrazole]	showed activity	use-dependent pUD30: ≥ 4.5
CCS(=O)(=O)N1CCN(Cc2nnnn2-c2ccc(C#N)c(C(F)(F)F)c2)CC1 [Compound 121, 4-(5-{[4-(ethylsulfonyl)-1-piperazinyl]methyl}-1H-tetrazol-1-yl)-2-(trifluoromethyl)benzonitrile]	showed activity	
CCS(=O)(=O)N1CCN(Cc2nnnn2-c2cccc(C(F)(F)F)c2)CC1 [Compound 48, 1-(Ethylsulfonyl)-4-({1-[3-(trifluoromethyl)phenyl]-1H-tetrazol-5-yl}methyl)piperazine]	showed activity	
C[C@H]1C(=O)N(C)CCN1Cc1nnnn1-c1ccc(C(F)(F)F)cc1 [Compound 142, (3S)-1,3-dimethyl-4-({1-[4-(trifluoromethyl)phenyl]-1H-tetrazol-5-yl}methyl)-2-piperazinone]	showed activity	use-dependent pUD30: ≥ 5.0; use-dependent pUD30 (listed as compound 142): ≥ 4.5
O=C1NCCC12CCN(Cc1nnnn1-c1cccc(C(F)(F)F)c1)CC2 [Compound 12, 8-({1-[3-(Trifluoromethyl)phenyl]-1H-tetrazol-5-yl}methyl)-2,8-diazaspiro[4.5]decan-1-one]	showed activity	
N#Cc1ccc(-n2nnnc2CN2CCC[C@H]2C(F)(F)F)cc1 [Compound 49, 4-(5-{[(2S)-2-(Trifluoromethyl)-1-pyrrolidinyl]methyl}-1H-tetrazol-1-yl)benzonitrile]	showed activity	
C[C@H]1CCCN1Cc1nnnn1-c1ccc(C#N)cc1 [Compound 69, 4-(5-{[(2S)-2-Methyl-1-pyrrolidinyl]methyl}-1H-tetrazol-1-yl)benzonitrile]	showed activity	use-dependent pUD30: ≥ 4.5
CCN1CCN(Cc2nnnn2-c2cccc(C(F)(F)F)c2)[C@H](C)C1.Cl [Compound 92, (2R)-4-Ethyl-2-methyl,-1-({1-[3-(trifluoromethyl)phenyl]-1H-tetrazol-5-yl}methyl)piperazine hydrochloride]	showed activity	
Cl.FC(F)(F)c1ccc(-n2nnnc2CN2C[C@@H]3C[C@H]2CO3)cc1 [Compound 43, (1S,4S)-5-({1-[4-(Trifluoromethyl)phenyl]-1H-tetrazol-5-yl}methyl)-2-oxa-5-azabicyclo[2.2.1]heptane hydrochloride]	showed activity	
C[C@@H]1CN(Cc2nnnn2-c2ccc(C#N)cc2)C[C@H](C)O1 [Compound 11, (cis) 4-(5-{[2,6-Dimethyl-4-morpholinyl]methyl}-1H-tetrazol-1-yl)benzonitrile]	showed activity	
C[C@@H]1CN(Cc2nnnn2-c2cccc(C(F)(F)F)c2)C[C@H](C)O1 [Compound 3, (cis)-2,6-Dimethyl-4-({1-[3-(trifluoromethyl)phenyl]-1H-tetrazol-5-yl}methyl)morpholine]	showed activity	
N#Cc1ccc(-n2nnnc2CN2CCC[C@@H]2C(F)(F)F)cc1 [Compound 73, 4-(5-{[(2R)-2-(Trifluoromethyl)-1-pyrrolidinyl]methyl}-1H-tetrazol-1-yl)benzonitrile]	showed activity	

Compound	activity in the hCav2.2 assay	also measured
FC(F)(F)c1ccc(-n2nnnc2CN2CCOCC2)cc1 [Compound 4, 4-({1-[4-(Trifluoromethyl)phenyl]-1H-tetrazol-5-yl}methyl)morpholine]	showed activity	
CC(C)N1CCN(Cc2nnnn2-c2ccc(C(F)(F)F)cc2)[C@H](C)C1=O [Compound 90, (3R)-3-Methyl-1-(1-methylethyl)-4-({1-[4-(trifluoromethyl)phenyl]-1H-tetrazol-5-yl}methyl)-2-piperazinone]	showed activity	use-dependent pUD30: ≥ 5.5
Cl.FC(F)(F)c1cccc(-n2nnnc2CNC2CCCC2)c1 [Compound 62, N-({1-[3-(Trifluoromethyl)phenyl]-1H-tetrazol-5-yl}methyl)cyclopentanamine hydrochloride]	showed activity	use-dependent pUD30: ≥ 4.5
FC(F)(F)c1ccc(-n2nnnc2CN2CCN3CCCCC3C2)cc1 (centres unmarked) [Compound 80, 2-({1-[4-(Trifluoromethyl)phenyl]-1H-tetrazol-5-yl}methyl)octahydro-2H-pyrido[1,2-a]pyrazine]	showed activity	use-dependent pUD30: ≥ 5.5
CC(C)NCc1nnnn1-c1ccc(C(F)(F)F)cc1 [Compound 8, N-({1-[4-(Trifluoromethyl)phenyl]-1H-tetrazol-5-yl}methyl)-2-propanamine]	showed activity	
C[C@@H]1CN(C)CCN1Cc1nnnn1-c1cccc(C(F)(F)F)c1.Cl [Compound 93, (2R)-2,4-Dimethyl-1-({1-[3-(trifluoromethyl)phenyl]-1H-tetrazol-5-yl}methyl)piperazine hydrochloride]	showed activity	
Cl.FC(F)(F)c1cc(-n2nnnc2CN2C[C@@H]3C[C@H]2CO3)ccc1Cl [Compound 110, (1S,4S)-5-({1-[4-chloro-3-(trifluoromethyl)phenyl]-1H-tetrazol-5-yl}methyl)-2-oxa-5-azabicyclo[2.2.1]heptane hydrochloride]	showed activity	
CC(C)N1CCN(Cc2nnnn2-c2cccc(C(F)(F)F)c2)[C@H](C)C1.Cl [Compound 94, (2R)-2-Methyl-4-(1-methylethyl)-1-({1-[3-(trifluoromethyl)phenyl]-1H-tetrazol-5-yl}methyl)piperazine hydrochloride]	showed activity	
CC(C)N1CCN(Cc2nnnn2-c2ccc(C(F)(F)F)cc2)CC1.Cl [Compound 96, 1-(1-Methylethyl)-4-({1-[4-(trifluoromethyl)phenyl]-1H-tetrazol-5-yl}methyl)piperazine hydrochloride]	showed activity	use-dependent pUD30 (hydrochloride): ≥ 5.5
C[C@@H]1CN(Cc2nnnn2-c2ccc(C(F)(F)F)cc2)C[C@H](C)O1 [Compound 2, (cis)-2,6-Dimethyl-4-({1-[4-(trifluoromethyl)phenyl]-1H-tetrazol-5-yl}methyl)morpholine]	showed activity	
CSc1ccc(-n2nnnc2CN2C[C@@H](C)O[C@@H](C)C2)cc1 [Compound 26, (cis)-2,6-Dimethyl-4-({1-[4-(methylthio)phenyl]-1 H-tetrazol-5-yl}methyl)morpholine]	showed activity	
C[C@@H]1COCCN1Cc1nnnn1-c1cccc(C(F)(F)F)c1.Cl [Compound 25, (3R)-3-Methyl-4-({1-[3-(trifluoromethyl)phenyl]-1H-tetrazol-5-yl}methyl)morpholine hydrochloride]	showed activity	
N#Cc1cc(-n2nnnc2CN2C[C@@H]3C[C@H]2CO3)cc(C(F)(F)F)c1 [Compound 104, 3-{5-[(1S,4S)-2-oxa-5-azabicyclo[2.2.1]hept-5-ylmethyl]-1H-tetrazol-1-yl}-5-(trifluoromethyl)benzonitrile]	showed activity	use-dependent pUD30: ≥ 5.0; use-dependent pUD30 (listed as compound 104): ≥ 4.5
CC1C(=O)NCCN1Cc1nnnn1-c1cccc(C(F)(F)F)c1 (centres unmarked) [Compound 32, 3-Methyl-4-({1-[3-(trifluoromethyl)phenyl]-1H-tetrazol-5-yl}methyl)-2-piperazinone]	showed activity	
C[C@@H]1CN(Cc2nnnn2-c2cccc(C(F)(F)F)c2)C[C@H](C)N1C.O=CO [Compound 66, cis-1,2,6-Trimethyl-4-({1-[3-(trifluoromethyl)phenyl]-1H-tetrazol-5-yl}methyl)piperazine formate salt]	showed activity	
CC(C)N1CCC2(CCN(Cc3nnnn3-c3ccc(C#N)c(C(F)(F)F)c3)CC2)C1 [Compound 147, 4-(5-{[2-(1-methylethyl)-2,8-diazaspiro[4.5]dec-8-yl]methyl}-1H-tetrazol-1-yl)-2-(trifluoromethyl)benzonitrile dihydrochloride]	showed activity	
